Reference: patent US20030032157A1, “Polypeptides interactive with Bcl-XL” (priority 2001, published 2003)
No constants are given. Whether binding was seen depends on the method and setting. Some results given as binding are weak or reduced against the parent protein; the word gives no strength.

Columns and labels:
[1] = target: human Bcl-XL-GST fusion protein (human) [GST: P08515]; assay: free peptide on immobilized Bcl-XL-GST with Bak BH3 competitor
[2] = target: human Bcl-XL-GST fusion protein (human) [GST: P08515]; assay: mRNA display selection on immobilized Bcl-XL-GST; cluster found among sequenced clones

Row | Binder | binding [1] | binding [2]
1 | RWWMCGGRMEDMLCCRVGH [SEQ ID NO 245] | binds | 
2 | GTRISDMLKLIADTWQRNCCPA (35S-Met labelled in vitro translation product) [Novel protein D, clone T25] |  | binds
